{"sequences": {"note": "By UniProt entry, the sequences of proteins in these tests, tags left out. Where a name states a change or a piece, a line headed by the entry shows the natural chain unless it says otherwise.", "UniProt P05556": "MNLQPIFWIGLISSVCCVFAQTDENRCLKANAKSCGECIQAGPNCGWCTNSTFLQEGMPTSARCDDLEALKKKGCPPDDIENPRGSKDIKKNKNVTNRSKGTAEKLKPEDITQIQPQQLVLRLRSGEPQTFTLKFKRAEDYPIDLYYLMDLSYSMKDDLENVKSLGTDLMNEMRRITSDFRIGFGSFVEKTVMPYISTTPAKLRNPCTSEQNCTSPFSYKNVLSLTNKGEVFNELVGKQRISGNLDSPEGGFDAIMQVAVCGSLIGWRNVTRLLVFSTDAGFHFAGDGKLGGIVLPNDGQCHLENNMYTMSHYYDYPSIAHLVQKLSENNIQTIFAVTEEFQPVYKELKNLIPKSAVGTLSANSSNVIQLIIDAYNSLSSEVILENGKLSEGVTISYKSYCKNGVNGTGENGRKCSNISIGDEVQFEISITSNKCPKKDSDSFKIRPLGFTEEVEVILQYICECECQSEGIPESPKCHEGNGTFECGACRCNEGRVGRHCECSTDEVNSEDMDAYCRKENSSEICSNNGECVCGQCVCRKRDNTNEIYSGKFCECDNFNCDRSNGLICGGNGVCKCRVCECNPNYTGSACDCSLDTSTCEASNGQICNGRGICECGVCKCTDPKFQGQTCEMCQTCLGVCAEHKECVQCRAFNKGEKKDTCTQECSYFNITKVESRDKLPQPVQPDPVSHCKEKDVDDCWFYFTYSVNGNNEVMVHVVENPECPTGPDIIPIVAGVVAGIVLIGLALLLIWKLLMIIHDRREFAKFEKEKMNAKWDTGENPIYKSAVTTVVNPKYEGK"}, "source": "paper doi:10.1101/2024.12.06.627249", "target": "endogenous CXCR4 on lymphoid cancer cells (human (endogenous in Namalwa, Z-138, RPCI-WM1 and patient PBMCs)) (UniProt P61073)", "assay": "FRET or BRET", "note": "These are yes or no findings as the source states them, for the method shown. In cells and extracts the contact can be indirect.", "data": [{"substance": "integrin β1 (from UniProt P05556 21-798) (receptor)", "values": [{"measurement": "binding", "result": "no binding"}]}]}
